Results are given in words; binding and its absence hold for the method and conditions named. Some results given as binding are weak or reduced against the parent protein; the word gives no strength. Sequences can lack the tags named with a protein.
What was measured:
[1] = target: human TNF receptor, biotinylated (human) (UniProt P19438); assay: model selection from emulsion; capture on coated PCR tubes; PCR and gel
[2] = target: protein A (Sigma), biotinylated (UniProt P38507); assay: protein-DNA complex captured on coated PCR tubes; PCR and gel (figure legend)
[3] = target: human TNF receptor, biotinylated (human) (UniProt P19438); assay: as above
[4] = target: protein A (Sigma), biotinylated (UniProt P38507); assay: protein-DNA complex captured on biotinylated protein in streptavidin-coated PCR tubes; PCR and gel
[5] = target: human TNF receptor, biotinylated (human) (UniProt P19438); assay: as above

By UniProt entry, the sequences of proteins in these tests, tags left out. Residues count along the entry.
UniProt P19438, residues 30-211: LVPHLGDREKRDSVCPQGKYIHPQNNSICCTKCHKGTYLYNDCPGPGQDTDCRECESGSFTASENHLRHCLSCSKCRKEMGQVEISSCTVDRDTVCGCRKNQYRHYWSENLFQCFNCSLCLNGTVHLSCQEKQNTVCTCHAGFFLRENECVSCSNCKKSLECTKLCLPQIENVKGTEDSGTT

- binding [1]: binds
- binding [2]: binds
- binding [3]: binds
- binding [4]: binds
- binding [5]: binds
B1: VH(DOM1h-10-27)-scArc fusion protein (pIE2aAVH(DOM1h-10-27)) (protein)
chain: MAEVQLLESGGGLVQPGGSLRLSCAASGFTFEWYWMGWVRQAPGKGLEWVSAISGSGGSTYYADSVKGRFTISRDNSKNTLYLQMNSLRAEDAAVYYCAKVKLGGGPNFGYRGQGTLVTVSSAAGGGSGGGHMKGMSKMPQFNLRWPREVLDLVRKVAEENGRSVNSEIYQRVMESFKKEGRIGAGGGSGGGSGGGSGGGHMKGMSKMPQFNLRWPREVLDLVRKVAEENGRSVNSEIYQRVMESFKKEGRIGAGGGSGGGSYPYDVPDYA
